Measurements published in article PMC9684564.

The chains behind the UniProt entries cited, without tags or fusion partners.
UniProt Q14974: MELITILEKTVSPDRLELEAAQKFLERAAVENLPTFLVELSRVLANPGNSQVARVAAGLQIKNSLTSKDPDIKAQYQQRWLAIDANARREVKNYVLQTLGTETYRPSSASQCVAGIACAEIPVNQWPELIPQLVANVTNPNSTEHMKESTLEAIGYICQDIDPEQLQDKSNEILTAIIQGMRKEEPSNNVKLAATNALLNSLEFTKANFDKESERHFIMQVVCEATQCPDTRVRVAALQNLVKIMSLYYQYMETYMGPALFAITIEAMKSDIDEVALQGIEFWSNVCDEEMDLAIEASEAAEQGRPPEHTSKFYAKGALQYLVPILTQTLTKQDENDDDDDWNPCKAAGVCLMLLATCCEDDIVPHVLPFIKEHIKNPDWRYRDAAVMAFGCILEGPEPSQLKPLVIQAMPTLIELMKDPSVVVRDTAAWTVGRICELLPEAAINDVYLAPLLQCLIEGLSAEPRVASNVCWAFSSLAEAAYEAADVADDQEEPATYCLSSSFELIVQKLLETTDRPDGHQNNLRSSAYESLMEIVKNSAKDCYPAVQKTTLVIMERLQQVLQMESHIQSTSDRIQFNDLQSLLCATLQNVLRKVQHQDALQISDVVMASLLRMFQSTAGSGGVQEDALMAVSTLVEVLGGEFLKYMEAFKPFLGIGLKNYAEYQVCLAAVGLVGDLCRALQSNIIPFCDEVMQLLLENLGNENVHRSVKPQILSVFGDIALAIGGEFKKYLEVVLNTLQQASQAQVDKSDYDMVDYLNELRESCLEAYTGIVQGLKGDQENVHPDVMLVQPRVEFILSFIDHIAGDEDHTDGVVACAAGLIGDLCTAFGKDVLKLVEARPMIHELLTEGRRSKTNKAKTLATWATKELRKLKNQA

Target: Karyopherin beta 1 (human (endogenous in hTERT-RPE1, HeLa, WHCO5, KYSE30)) (UniProt Q14974)
Experiment: affinity purification with mass spectrometry; endogenous Kpnβ1 precipitated with 50 µg anti-Karyopherin β1 (H-7) agarose-conjugated antibody from 500 µg lysate of hTERT-RPE1, HeLa, WHCO5 or KYSE30 cells; non-denaturing lysis buffer (1% Triton X-100, 120 mM NaCl, 1 mM CaCl2, 25 mM Tris, pH 7.4); 4 °C overnight; no cross-linking; hits present in all three replicates and absent from the IgG isotype controls

binding: binds
B1: Clathrin (CLTA) (protein, UniProt P09496 1-248)
chain: MAELDPFGAPAGAPGGPALGNGVAGAGEEDPAAAFLAQQESEIAGIENDEAFAILDGGAPGPQPHGEPPGGPDAVDGVMNGEYYQESNGPTDSYAAISQVDRLQSEPESIRKWREEQMERLEALDANSRKQEAEWKEKAIKELEEWYARQDEQLQKTKANNRVADEAFYKQPFADVIGYVTNINHPCYSLEQAAEEAFVNDIDESSPGTEWERVARLCDFNPKSSKQAKDVSRMRSVLISLKQAPLVH

binding: binds
B2: Splicing factor 1 (protein, UniProt Q15637 1-639)
chain: MATGANATPLDFPSKKRKRSRWNQDTMEQKTVIPGMPTVIPPGLTREQERAYIVQLQIEDLTRKLRTGDLGIPPNPEDRSPSPEPIYNSEGKRLNTREFRTRKKLEEERHNLITEMVALNPDFKPPADYKPPATRVSDKVMIPQDEYPEINFVGLLIGPRGNTLKNIEKECNAKIMIRGKGSVKEGKVGRKDGQMLPGEDEPLHALVTANTMENVKKAVEQIRNILKQGIETPEDQNDLRKMQLRELARLNGTLREDDNRILRPWQSSETRSITNTTVCTKCGGAGHIASDCKFQRPGDPQSAQDKARMDKEYLSLMAELGEAPVPASVGSTSGPATTPLASAPRPAAPANNPPPPSLMSTTQSRPPWMNSGPSESRPYHGMHGGGPGGPGGGPHSFPHPLPSLTGGHGGHPMQHNPNGPPPPWMQPPPPPMNQGPHPPGHHGPPPMDQYLGSTPVGSGVYRLHQGKGMMPPPPMGMMPPPPPPPSGQPPPPPSGPLPPWQQQQQQPPPPPPPSSSMASSTPLPWQQNTTTTTTSAGTGSIPPWQQQQAAAAASPGAPQMQGNPTMVPLPPGVQPPLPPGAPPPPPPPPPGSAGMMYAPPPPPPPPMDPSNFVTMMGMGVAGMPPFGMPPAPPPPPPQN

binding: binds
B3: Heterogeneous nuclear ribonucleoprotein D-like (protein, UniProt O14979 1-420)
chain: MEVPPRLSHVPPPLFPSAPATLASRSLSHWRPRPPRQLAPLLPSLAPSSARQGARRAQRHVTAQQPSRLAGGAAIKGGRRRRPDLFRRHFKSSSIQRSAAAAAATRTARQHPPADSSVTMEDMNEYSNIEEFAEGSKINASKNQQDDGKMFIGGLSWDTSKKDLTEYLSRFGEVVDCTIKTDPVTGRSRGFGFVLFKDAASVDKVLELKEHKLDGKLIDPKRAKALKGKEPPKKVFVGGLSPDTSEEQIKEYFGAFGEIENIELPMDTKTNERRGFCFITYTDEEPVKKLLESRYHQIGSGKCEIKVAQPKEVYRQQQQQQKGGRGAAAGGRGGTRGRGRGQGQNWNQGFNNYYDQGYGNYNSAYGGDQNYSGYGGYDYTGYNYGNYGYGQGYADYSGQQSTYGKASRGGGNHQNNYQPY

These are yes or no findings as the source states them, for the method shown. Binding seen in cells or lysates may run through a third protein. Here binding means that the protein was enriched with, or labelled near, the bait; the list need not be complete. Each block holds one binder with its values, some of them ahead of it.
